These are yes or no findings as the source states them, for the method shown. For part of these data: Binding can be weak; no strength is given. For part of these data: Sequences can lack the tags named with a protein. For part of these data: In cells and extracts the contact can be indirect.
What was measured:
[1] = target: T1, recombinant His-tagged Leishmania PCNA (Leishmania donovani) (UniProt B5TV91); test: condition: 25 pmoles of purified PCNA (trimeric protein) in 500 μl; pull-down; 25 pmoles purified His-tagged PCNA (trimeric) incubated with 130-145 μg E. coli extract holding the overexpressed MBP-Cdc45(481-785) protein in 1X PBS, 2 h at 4°C; pulled down on cobalt (Talon) beads; wash 100 mM Tris.Cl pH 8, 750 mM NaCl; Coomassie and anti-MBP blot; only the target purified
T1 sequence: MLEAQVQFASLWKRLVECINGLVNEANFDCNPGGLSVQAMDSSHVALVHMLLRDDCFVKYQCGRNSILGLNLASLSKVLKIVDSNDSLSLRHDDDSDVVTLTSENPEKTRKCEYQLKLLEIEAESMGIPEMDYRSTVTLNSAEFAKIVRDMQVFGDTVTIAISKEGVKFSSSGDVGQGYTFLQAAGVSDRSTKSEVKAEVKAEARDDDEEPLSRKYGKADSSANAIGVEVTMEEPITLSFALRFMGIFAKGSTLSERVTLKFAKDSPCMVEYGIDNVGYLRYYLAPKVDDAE

[2] = target: T1, recombinant His-tagged Leishmania PCNA (Leishmania donovani); test: pull-down; 25 pmoles purified His-tagged PCNA (trimeric) incubated with 130-145 μg E. coli extract holding the overexpressed MBP-Cdc45(481-785) protein in 1X PBS, 2 h at 4°C; pulled down on cobalt (Talon) beads; wash 100 mM Tris.Cl pH 8, 750 mM NaCl; Coomassie and anti-MBP blot; only the target purified
[3] = target: T2, Leishmania donovani PCNA (endogenous) (Leishmania donovani (endogenous in promastigotes)) (UniProt B5TV91); test: co-IP; PCNA immunoprecipitated with anti-PCNA antibodies on protein A sepharose from DNaseI-treated whole cell lysates of logarithmically growing transfectant promastigotes, overnight at 4°C; blot with anti-FLAG
T2 sequence: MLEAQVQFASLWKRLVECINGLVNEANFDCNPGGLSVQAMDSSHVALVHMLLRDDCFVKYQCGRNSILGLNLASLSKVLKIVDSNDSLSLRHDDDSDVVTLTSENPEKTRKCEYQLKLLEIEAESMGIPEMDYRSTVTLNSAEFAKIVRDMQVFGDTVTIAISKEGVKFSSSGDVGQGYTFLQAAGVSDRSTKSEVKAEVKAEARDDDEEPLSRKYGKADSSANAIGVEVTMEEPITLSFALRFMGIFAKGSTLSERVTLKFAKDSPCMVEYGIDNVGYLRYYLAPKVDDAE

[4] = target: MBP-Cdc45(481-785) (Leishmania donovani); test: pull-down; MBP-tagged protein immobilised on amylose resin, washed extensively (1 M NaCl) to remove E. coli contaminants, incubated with purified His-tagged PCNA (12.5 μg) 2 h at 4°C; wash 750 mM NaCl; eluted with 10 mM maltose; Coomassie and blot; both purified
[5] = target: MBP-Cdc45-PIP(481-785) (Leishmania donovani); test: as above

## MBP-Cdc45-PIP(481-785) (Leishmania donovani) (domain or fragment)
[1]
  binding: no binding

## MBP-Cdc45(481-785) (Leishmania donovani) (domain or fragment)
[2]
  binding: binds

## Leishmania donovani Cdc45-FLAG
[3]
  binding: binds

## Leishmania donovani Cdc45-PIP-FLAG (PIP box mutant)
[3]
  binding: no binding

B1: recombinant His-tagged Leishmania PCNA (protein, UniProt B5TV91 1-292)
chain: MLEAQVQFASLWKRLVECINGLVNEANFDCNPGGLSVQAMDSSHVALVHMLLRDDCFVKYQCGRNSILGLNLASLSKVLKIVDSNDSLSLRHDDDSDVVTLTSENPEKTRKCEYQLKLLEIEAESMGIPEMDYRSTVTLNSAEFAKIVRDMQVFGDTVTIAISKEGVKFSSSGDVGQGYTFLQAAGVSDRSTKSEVKAEVKAEARDDDEEPLSRKYGKADSSANAIGVEVTMEEPITLSFALRFMGIFAKGSTLSERVTLKFAKDSPCMVEYGIDNVGYLRYYLAPKVDDAE
[4]
  binding: binds
[5]
  binding: no binding (tested: 12.5 μg purified PCNA)
